These results are taken from article PMC6748103, “SPOP suppresses prostate cancer through regulation of CYCLIN E1 stability” (Cell Death and Differentiation, 2018).

Chains of the proteins cited; added tags and fusions are not shown. Lines headed by an entry give the natural chain unless they say otherwise; changes in a name come on top.
UniProt P24864: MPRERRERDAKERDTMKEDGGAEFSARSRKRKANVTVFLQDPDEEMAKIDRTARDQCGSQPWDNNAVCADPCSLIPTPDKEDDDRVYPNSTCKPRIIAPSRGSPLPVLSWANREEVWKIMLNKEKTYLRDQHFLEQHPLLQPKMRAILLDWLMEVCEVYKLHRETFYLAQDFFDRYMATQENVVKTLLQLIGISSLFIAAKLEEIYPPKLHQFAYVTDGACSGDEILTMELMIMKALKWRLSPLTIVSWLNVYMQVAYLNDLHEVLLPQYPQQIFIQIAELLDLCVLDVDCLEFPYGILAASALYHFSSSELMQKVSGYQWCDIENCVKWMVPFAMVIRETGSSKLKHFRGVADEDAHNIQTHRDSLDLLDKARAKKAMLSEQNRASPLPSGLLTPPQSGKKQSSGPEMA
UniProt O43791: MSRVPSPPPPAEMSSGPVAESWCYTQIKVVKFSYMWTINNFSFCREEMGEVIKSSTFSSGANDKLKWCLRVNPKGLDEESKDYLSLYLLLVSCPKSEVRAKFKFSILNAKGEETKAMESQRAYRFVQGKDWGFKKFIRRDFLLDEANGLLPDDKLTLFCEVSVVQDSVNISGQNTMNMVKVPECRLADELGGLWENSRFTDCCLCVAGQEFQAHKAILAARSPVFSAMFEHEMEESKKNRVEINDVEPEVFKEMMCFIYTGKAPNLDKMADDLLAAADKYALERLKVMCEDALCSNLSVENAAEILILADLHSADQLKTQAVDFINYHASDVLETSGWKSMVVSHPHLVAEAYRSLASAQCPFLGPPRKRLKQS

The target of experiment [1] is endogenous CYCLIN E1 (human (endogenous in DU145)) (UniProt P24864). Kind of experiment: co-IP; DU145 lysates after DMSO or MG132 (10 mM) for 12 h; co-IP with CYCLIN E1 antibody; endogenous proteins.
In experiment [2] the target is Flag-tagged CYCLIN E1 (UniProt P24864). Kind of experiment: co-IP; HEK293 cells transfected with the indicated plasmids for 24 h, then 10 μM MG132 for 12 h; co-IP with anti-Flag or anti-HA antibodies.
For experiment [3] the target is unchanged. Put plainly: co-IP; cells transfected with the indicated plasmids; Flag-CCNE1 and HA-SPOP (MATH domain), with or without expressed CDK2.
Experiment [4] has the same target. Kind of experiment: co-IP; immunoprecipitation of truncated forms of CYCLIN E1 and SPOP (Sup. Fig. 1C, D); cells and antibodies not given.

Results are given in words; binding and its absence hold for the method and conditions named. Binding seen in cells or lysates may run through a third protein. Some entries that bind do so weakly or less than the wild type.

With “endogenous SPOP (from UniProt O43791 1-374)”, in experiment [1], the binding entry is on record as “binds”.
With HA-SPOP (from UniProt O43791 1-374), the binding result in the experiment with Flag-tagged CYCLIN E1 [2] is listed as “binds”.
In the case of “HA-SPOP (MATH domain) (from UniProt O43791 31-161) (domain or fragment)”, the binding result in the experiment with Flag-tagged CYCLIN E1 [3] and with Flag-tagged CYCLIN E1 [4] was “binds” throughout.
